Results on 27 targets are retold here after the supplement of paper PMC6411743.

Chains of the proteins cited; added tags and fusions are not shown. Lines headed by an entry give the natural chain unless they say otherwise; changes in a name come on top.
UniProt Q8TAV0: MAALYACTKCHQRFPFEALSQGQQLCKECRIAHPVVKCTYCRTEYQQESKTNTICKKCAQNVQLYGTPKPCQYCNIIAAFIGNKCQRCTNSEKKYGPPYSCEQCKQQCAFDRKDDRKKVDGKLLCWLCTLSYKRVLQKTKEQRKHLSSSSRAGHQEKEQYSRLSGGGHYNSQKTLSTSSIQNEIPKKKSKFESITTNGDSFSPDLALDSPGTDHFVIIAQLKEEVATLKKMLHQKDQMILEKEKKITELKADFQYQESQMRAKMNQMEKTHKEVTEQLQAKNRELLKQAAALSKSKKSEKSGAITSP
UniProt Q8IW41: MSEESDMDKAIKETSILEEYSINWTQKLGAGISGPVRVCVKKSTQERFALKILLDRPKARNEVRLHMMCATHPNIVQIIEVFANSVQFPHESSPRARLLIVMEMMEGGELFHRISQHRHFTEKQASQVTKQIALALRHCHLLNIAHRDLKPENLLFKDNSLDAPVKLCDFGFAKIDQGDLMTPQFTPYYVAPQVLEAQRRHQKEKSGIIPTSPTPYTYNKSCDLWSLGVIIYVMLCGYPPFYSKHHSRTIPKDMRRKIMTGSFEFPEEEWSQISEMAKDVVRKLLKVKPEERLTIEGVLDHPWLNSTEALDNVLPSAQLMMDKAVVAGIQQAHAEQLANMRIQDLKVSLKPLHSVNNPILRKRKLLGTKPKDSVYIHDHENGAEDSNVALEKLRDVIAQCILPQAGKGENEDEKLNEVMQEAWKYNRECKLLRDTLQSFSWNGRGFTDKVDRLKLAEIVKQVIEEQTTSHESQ
UniProt Q8N5G2: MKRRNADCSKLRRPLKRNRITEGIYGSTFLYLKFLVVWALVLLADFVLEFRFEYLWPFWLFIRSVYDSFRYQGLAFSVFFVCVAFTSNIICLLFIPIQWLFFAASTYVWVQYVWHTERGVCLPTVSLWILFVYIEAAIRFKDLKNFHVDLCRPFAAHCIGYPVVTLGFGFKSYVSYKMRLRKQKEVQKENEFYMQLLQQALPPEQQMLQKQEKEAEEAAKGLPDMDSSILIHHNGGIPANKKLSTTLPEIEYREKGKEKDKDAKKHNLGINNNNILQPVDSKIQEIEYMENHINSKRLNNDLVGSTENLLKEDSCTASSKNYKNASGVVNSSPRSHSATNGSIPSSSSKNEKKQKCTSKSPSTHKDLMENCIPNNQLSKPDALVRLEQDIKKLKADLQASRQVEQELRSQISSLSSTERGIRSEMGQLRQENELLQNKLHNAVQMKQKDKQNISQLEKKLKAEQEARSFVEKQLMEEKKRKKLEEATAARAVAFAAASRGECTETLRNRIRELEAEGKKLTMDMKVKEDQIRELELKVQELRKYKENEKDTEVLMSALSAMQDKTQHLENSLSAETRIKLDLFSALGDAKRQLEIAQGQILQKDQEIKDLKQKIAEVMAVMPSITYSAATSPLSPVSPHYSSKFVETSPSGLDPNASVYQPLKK
UniProt Q8IXQ3: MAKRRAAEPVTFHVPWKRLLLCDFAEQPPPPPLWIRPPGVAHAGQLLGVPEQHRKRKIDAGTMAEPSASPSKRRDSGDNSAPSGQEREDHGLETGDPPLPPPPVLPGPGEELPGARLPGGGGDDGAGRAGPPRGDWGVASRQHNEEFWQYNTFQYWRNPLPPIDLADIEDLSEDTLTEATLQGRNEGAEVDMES
UniProt Q8TB03: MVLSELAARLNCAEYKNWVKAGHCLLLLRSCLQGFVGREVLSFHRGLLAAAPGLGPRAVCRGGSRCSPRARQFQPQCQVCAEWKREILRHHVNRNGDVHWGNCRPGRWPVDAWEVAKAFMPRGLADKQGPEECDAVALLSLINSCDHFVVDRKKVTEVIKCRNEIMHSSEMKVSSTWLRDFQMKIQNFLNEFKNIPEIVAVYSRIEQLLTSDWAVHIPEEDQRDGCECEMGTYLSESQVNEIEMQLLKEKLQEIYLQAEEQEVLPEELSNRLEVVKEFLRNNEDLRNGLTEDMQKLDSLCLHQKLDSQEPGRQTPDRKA
UniProt Q8NDD1: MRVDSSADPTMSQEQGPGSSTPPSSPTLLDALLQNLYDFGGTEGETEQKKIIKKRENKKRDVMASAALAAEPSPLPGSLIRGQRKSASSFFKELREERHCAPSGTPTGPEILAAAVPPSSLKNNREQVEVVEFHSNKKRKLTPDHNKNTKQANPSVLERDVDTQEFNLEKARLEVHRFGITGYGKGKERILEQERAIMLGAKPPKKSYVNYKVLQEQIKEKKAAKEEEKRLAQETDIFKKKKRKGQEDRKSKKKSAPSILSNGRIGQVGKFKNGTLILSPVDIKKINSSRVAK
UniProt Q8IZH2: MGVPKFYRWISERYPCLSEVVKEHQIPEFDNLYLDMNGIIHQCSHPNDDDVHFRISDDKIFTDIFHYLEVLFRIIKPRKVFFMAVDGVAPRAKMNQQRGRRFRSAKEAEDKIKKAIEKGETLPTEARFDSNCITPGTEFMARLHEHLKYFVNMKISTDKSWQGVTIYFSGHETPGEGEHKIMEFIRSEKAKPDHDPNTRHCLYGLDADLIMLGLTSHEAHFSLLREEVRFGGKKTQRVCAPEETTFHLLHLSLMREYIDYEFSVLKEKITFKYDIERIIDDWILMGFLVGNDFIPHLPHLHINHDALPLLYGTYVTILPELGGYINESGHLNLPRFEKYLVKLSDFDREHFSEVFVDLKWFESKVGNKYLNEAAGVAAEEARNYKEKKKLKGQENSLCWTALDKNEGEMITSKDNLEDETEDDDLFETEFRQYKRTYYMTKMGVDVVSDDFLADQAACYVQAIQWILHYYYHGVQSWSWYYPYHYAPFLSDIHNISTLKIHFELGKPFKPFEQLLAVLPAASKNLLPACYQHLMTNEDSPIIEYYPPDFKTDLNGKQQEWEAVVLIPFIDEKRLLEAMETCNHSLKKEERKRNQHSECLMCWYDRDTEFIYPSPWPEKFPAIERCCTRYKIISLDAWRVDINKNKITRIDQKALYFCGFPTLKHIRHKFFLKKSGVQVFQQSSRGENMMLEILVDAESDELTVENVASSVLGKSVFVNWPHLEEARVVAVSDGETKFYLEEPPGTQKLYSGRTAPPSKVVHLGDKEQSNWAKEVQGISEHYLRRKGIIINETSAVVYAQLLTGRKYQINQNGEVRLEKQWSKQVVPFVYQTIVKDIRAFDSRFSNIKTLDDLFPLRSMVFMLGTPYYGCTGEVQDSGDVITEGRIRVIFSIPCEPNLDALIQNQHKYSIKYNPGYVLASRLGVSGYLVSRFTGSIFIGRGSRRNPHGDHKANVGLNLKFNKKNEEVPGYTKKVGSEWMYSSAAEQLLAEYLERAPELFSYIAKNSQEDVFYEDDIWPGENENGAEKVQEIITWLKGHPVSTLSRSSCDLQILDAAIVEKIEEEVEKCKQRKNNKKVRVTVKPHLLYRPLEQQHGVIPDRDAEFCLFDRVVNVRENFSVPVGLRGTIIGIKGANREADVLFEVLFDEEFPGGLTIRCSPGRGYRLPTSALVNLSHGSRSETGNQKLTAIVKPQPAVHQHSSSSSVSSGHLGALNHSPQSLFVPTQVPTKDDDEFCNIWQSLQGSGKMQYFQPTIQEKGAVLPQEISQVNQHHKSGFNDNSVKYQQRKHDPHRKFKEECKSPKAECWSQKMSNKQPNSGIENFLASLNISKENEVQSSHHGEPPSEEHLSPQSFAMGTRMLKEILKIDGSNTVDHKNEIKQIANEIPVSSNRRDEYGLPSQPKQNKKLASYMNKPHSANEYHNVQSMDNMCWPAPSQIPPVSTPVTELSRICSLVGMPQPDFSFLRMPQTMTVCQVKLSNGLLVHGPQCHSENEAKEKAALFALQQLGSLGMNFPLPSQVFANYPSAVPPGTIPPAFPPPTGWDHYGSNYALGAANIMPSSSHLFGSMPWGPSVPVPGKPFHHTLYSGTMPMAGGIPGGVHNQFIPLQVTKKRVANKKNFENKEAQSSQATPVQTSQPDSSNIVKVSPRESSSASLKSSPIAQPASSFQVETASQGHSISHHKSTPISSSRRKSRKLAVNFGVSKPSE
UniProt Q8N490: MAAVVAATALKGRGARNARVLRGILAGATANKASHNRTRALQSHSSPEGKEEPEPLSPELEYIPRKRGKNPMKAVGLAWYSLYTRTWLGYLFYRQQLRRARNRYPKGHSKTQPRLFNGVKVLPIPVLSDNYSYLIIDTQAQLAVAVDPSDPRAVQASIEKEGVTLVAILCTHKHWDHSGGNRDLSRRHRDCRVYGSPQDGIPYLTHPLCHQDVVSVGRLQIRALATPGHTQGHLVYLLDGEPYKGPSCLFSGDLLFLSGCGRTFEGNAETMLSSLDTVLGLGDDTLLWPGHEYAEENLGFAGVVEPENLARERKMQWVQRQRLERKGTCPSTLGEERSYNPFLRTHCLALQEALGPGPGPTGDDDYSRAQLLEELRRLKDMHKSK
UniProt Q8NHP8: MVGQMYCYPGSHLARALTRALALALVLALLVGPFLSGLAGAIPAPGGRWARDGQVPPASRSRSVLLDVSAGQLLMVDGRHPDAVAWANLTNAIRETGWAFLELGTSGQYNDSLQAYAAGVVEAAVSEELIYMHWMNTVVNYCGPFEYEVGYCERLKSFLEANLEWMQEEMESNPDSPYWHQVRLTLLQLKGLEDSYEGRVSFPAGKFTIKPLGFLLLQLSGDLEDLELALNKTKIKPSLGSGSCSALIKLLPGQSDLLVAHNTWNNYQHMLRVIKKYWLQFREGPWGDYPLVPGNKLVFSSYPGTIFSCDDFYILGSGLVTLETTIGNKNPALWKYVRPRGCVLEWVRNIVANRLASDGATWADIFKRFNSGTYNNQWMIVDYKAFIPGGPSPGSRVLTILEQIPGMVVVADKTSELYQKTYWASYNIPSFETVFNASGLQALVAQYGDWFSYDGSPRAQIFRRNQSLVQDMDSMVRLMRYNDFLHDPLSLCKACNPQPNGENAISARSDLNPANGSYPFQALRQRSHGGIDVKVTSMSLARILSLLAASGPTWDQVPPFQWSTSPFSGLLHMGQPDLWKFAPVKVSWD
UniProt Q8NHM5: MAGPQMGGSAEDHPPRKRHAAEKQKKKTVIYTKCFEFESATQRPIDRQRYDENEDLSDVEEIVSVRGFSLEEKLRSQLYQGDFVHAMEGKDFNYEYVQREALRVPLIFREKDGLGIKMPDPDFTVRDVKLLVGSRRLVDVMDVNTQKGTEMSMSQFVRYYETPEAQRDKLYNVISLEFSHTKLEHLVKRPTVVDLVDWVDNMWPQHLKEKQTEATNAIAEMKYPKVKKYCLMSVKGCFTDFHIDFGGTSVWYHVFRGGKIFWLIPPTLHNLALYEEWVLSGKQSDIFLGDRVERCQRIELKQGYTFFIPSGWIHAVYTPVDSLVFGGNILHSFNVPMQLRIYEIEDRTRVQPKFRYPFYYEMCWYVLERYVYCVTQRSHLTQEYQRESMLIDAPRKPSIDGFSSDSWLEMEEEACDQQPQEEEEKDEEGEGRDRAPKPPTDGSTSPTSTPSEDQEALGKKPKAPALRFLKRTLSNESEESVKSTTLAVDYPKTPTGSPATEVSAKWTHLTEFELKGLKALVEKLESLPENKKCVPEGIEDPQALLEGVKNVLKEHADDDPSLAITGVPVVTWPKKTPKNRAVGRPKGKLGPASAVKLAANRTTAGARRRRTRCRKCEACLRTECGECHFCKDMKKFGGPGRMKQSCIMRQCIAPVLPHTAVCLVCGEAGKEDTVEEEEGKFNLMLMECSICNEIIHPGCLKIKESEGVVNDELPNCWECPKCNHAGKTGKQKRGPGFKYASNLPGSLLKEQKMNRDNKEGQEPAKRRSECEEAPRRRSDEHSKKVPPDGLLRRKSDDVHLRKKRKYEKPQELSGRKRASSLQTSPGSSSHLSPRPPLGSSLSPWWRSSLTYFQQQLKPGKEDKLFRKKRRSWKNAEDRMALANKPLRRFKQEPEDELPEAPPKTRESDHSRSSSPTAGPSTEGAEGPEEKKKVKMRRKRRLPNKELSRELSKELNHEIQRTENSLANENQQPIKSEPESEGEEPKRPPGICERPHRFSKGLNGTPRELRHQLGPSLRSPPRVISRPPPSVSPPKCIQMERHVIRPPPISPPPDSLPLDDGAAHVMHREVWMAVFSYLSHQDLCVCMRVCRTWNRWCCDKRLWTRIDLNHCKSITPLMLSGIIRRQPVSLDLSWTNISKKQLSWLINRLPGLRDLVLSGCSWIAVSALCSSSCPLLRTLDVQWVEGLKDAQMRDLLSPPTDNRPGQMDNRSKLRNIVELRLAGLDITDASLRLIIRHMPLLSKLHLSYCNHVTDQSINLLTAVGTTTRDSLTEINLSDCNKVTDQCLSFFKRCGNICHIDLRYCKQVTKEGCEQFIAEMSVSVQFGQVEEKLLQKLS
UniProt Q8N5C7: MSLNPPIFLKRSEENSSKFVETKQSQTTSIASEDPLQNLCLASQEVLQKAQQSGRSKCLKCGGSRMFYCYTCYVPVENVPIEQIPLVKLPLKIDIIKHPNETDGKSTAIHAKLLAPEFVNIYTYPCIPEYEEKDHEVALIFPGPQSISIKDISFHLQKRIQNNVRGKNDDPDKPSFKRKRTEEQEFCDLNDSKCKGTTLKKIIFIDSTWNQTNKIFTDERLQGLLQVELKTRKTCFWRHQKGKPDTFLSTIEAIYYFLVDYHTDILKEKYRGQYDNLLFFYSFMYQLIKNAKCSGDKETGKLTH

± gives the standard deviation of the averaged measurements. This is a selection; strong and weak results do not stand in their true shares. Small differences around the control level are noise.

Compound in this experiment: Nc1ncnc2c1ncn2[C@@H]1O[C@H](COP(=O)(O)OP(=O)(O)OP(=O)(O)O)[C@@H](O)[C@H]1O [adenosine triphosphate]
Kind of experiment: NP40-soluble protein abundance relative to vehicle (solubility fold change) (ratio); higher = more soluble protein in presence of ATP. The following applies: concentration: 0.1mM. Put shortly:
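Data come from three independent experiments in which Dounce-homogenised Jurkat crude lysate was treated at eight concentrations from 0.1 to 10 mM. Treatment ran 10 min at room temperature and then 3 min at 37 °C, after which 0.8% NP40 and benzonase were added for 60 min at 4 °C before ultracentrifugation. The supernatant underwent TMT labelling and LC-MS/MS, and vsn-normalised intensities were expressed as fold change against the detergent-processed vehicle in each replicate.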
Turning to FAM76A (UniProt Q8TAV0), the NP40-soluble protein abundance was determined as 0.973 ± 0.023. Under UniProt Q8IW41 and related entries stands 1.042 ± 0.0079. As to GDAP1 (UniProt Q8TB36), the NP40-soluble protein abundance stood at 0.945 ± 0.038. Under UniProt Q8N1K5 and related entries stands 1.06 ± 0.1; under UniProt Q8N9R8 and related entries, 1.05 ± 0.06. Under UniProt Q8IXW5 and related entries stands 1.03 ± 0.028; under UniProt Q8N5G2, 1.12 ± 0.3. Under ARL6IP6 (UniProt Q8N6S5) stands 1.01 ± 0.052; under C9orf40 (UniProt Q8IXQ3), 0.975 ± 0.094; under LZTR1 (UniProt Q8N653), 1.02 ± 0.04.

As to CXorf38 (UniProt Q8TB03), the NP40-soluble protein abundance worked out at 0.988 ± 0.014. Under ARFGAP1 (UniProt Q8N6T3) stands 0.98 ± 0.021; under UniProt Q8NDD1 and related entries, 0.974 ± 0.089; under RNF168 (UniProt Q8IYW5), 0.976 ± 0.014. Take UniProt Q8IZH2 and related entries: the NP40-soluble protein abundance was 0.995 ± 0.033. Under PAF1 (UniProt Q8N7H5) stands 1.01 ± 0.037; under NUP43 (UniProt Q8NFH3), 1.05 ± 0.082. The figure for UniProt Q8N9N2-2|Q8N9N2 is 1.05 ± 0.064; for UniProt Q8N490 and related entries it is 1.01 ± 0.15; for CMIP (UniProt Q8IY22) it is 1.01 ± 0.019.

GADD45GIP1 (UniProt Q8TAE8): the NP40-soluble protein abundance came to 0.946 ± 0.22. For the target ANKRD13A (UniProt Q8IZ07), the NP40-soluble protein abundance amounted to 1.08 ± 0.14. Under UniProt Q8NHP8 and related entries stands 0.899 ± 0.029; under TTC39C (UniProt Q8N584), 1.04 ± 0.02. For UniProt Q8NHM5 and related entries, the NP40-soluble protein abundance was determined as 1.02 ± 0.059. Under DTWD1 (UniProt Q8N5C7) stands 1.03 ± 0.036; under UniProt Q8ND56 and related entries, 0.99 ± 0.012.
